No constants are given. Whether binding was seen depends on the method and setting. In cells and extracts the contact can be indirect. These calls come from enrichment with a bait or labelling near it, and not all partners need be listed.

The chains behind the UniProt entries cited, without tags or fusion partners.
UniProt Q9WTU0: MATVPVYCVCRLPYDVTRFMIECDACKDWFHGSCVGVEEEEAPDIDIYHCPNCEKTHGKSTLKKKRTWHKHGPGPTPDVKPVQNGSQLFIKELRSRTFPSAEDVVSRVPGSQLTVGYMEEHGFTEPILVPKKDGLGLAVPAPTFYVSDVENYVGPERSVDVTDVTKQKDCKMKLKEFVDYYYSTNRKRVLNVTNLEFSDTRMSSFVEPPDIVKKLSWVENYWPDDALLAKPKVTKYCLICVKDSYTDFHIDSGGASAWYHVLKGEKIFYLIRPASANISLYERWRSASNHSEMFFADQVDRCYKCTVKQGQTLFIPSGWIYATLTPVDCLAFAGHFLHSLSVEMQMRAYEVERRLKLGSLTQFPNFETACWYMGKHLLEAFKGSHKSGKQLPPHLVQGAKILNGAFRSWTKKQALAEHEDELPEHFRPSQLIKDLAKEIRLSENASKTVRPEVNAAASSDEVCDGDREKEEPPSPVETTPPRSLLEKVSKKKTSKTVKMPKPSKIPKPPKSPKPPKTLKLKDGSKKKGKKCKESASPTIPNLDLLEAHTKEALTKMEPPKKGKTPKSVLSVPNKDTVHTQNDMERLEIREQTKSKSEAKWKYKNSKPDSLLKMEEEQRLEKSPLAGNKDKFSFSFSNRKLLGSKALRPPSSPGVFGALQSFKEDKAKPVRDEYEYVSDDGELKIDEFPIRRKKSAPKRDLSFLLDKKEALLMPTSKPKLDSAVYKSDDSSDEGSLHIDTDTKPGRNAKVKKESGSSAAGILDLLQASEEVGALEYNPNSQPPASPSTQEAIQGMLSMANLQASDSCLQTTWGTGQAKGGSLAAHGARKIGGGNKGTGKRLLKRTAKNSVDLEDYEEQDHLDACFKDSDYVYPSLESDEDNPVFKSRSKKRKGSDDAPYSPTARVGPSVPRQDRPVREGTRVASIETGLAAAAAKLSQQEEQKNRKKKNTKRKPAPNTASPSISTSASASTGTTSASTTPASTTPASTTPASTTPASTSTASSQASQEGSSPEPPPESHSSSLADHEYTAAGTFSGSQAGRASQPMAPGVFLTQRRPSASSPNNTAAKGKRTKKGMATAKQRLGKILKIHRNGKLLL

One substance from article PMC5974278 can be followed below.

The target of this test is T1, ChREBP used as bait for mass spectrometry in hepatocytes (UniProt Q99MZ3).
T1 sequence: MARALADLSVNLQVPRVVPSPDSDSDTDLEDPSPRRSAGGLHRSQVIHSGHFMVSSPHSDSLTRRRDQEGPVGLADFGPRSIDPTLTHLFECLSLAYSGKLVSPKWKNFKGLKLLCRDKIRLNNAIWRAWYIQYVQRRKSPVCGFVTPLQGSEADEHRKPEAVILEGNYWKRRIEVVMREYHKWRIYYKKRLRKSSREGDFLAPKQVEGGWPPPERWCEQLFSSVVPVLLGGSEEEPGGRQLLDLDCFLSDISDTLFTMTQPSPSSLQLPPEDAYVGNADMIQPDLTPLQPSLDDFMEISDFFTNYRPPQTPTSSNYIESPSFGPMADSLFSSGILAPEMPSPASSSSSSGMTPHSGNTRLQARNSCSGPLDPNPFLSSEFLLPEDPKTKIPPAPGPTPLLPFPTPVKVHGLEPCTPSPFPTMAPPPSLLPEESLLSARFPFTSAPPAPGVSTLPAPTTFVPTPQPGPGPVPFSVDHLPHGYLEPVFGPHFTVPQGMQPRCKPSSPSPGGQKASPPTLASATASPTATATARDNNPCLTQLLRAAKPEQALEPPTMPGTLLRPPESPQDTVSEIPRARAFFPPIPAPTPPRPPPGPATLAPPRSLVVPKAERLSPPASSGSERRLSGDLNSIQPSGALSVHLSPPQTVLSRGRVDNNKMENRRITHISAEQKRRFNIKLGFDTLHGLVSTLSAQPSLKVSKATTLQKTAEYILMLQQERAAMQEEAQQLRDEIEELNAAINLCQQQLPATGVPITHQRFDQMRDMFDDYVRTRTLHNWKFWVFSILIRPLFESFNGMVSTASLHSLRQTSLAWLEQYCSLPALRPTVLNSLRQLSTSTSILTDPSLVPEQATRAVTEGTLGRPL
Description: affinity purification with mass spectrometry; identification of transcriptional co-regulators of ChREBP in hepatocytes; Phf2 purified with ChREBP.

For the substance “endogenous Phf2 (mouse liver / hepatocytes) (from UniProt Q9WTU0 1-1096) (enzyme)”, the binding entry was “binds”.
